Measurements reported in PubChem BioAssay AID1273 (Columbia University Molecular Screening Center, 2008).
Among all 130,000 compounds or so, about 1,200 (0.92%) were called active. The inconclusive results got no clear call from the source; some entries with a clear call stand among them for comparison.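 Rule for the calls: active = inhibition above the mean plus 3 SD, with well images judged a real hit on visual review (cut at about 60% in these data, passing the limit was not always enough); inconclusive = inhibition over the cutoff but images rejected on review; inactive = inhibition not above the cutoff.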

Assay: inhibitors of insulin promoter-driven GFP, primary screen, imaging, TRM-6 cells (human fetal islet line), eGFP reporter, cell count (AID 1273)
Details: at 2 µM, active compounds read high, reporter expression induced with tamoxifen

SMILES | inhibition
CC(C)C(=O)N1CCN(c2ccc(NC(=O)c3ccc4c(c3)OCCO4)cc2)CC1 | inconclusive: 73.3%
Nc1ncnc(Nc2ccccc2C(F)(F)F)n1 | inconclusive: 80%
O=C(N/N=C/c1ccc(Br)s1)c1ccncc1 | inactive: 66.7%
CCCCNC(=O)OCC(CC)NC(=O)OC(C)C (centres undefined) | inconclusive: 71.4%
CCCn1nnc(NC(=O)C(C)Oc2ccc(Cl)cc2Cl)n1 (centres undefined) | inactive: -59.1%
CC(=O)NC1(c2cccc(F)c2)CCN(CC(=O)NC2CCCCC2)CC1 | inconclusive: 72.7%
CCn1c(COc2ccc3c(c2)OCO3)nnc1SCC(=O)O | inconclusive: 76.2%
CCOc1ccc(N2C(=O)CC(Sc3nccc(C)n3)C2=O)cc1 (centres undefined) | inconclusive: 80%
CCOC(=O)C1CCCN(C(=O)c2sc3nc(-c4ccc(OC)cc4)cn3c2C)C1 (centres undefined) | inactive: -39.4%
CN(C(=O)Cc1noc2ccccc12)c1ccccc1 | inactive: -50%
CCn1c(C2CC(=O)N(c3cc(C)cc(C)c3)C2)nc2ccccc21 (centres undefined) | inconclusive: 70%
Cn1c(=O)c(Oc2ccc(F)cc2)c(O)c2ccccc21 | active: 64.3%
Cc1ccsc1/C=N/Nc1nc2ccccc2s1 | inactive: 25%
Cc1ccc(C(=O)n2nc(-c3ccccc3)nc2NCc2ccco2)cc1 | inactive: 20.6%
Cn1c(=O)c2c(nc(CN3CCOCC3)n2CCCc2ccccc2)n(C)c1=O | inconclusive: 80%
C=CCc1ccccc1OCC(O)CN1CCN(CCN2C(=O)c3cccc4cccc(c34)C2=O)CC1 (centres undefined) | inactive: -51.7%
Cc1cccc(N2CCCn3c2nc2c3c(=O)n(CCN3CCOCC3)c(=O)n2C)c1 | inconclusive: 81.2%
COc1ccc2[nH]c(=O)c(CN(C(C)=O)c3cccc(C)c3)cc2c1 | inconclusive: 90.9%
Cc1nc(Nc2ccc3c(c2)OCO3)c2oc3ccccc3c2n1 | active: 81.8%
N#CCCN1CCNCC1 | active: 67.9%
CC(Oc1ccc(Cl)cc1)C(=O)N/N=C/c1ccsc1 (centres undefined) | inactive: -22.6%
CN1CCN(C(=O)CSc2ccc(Cl)cc2)CC1 | inconclusive: 71.4%
O=C(CSc1nnnn1Cc1ccccc1)c1ccccc1F | active: 92.6%
CN(C)CCNC(=O)C(C(=O)c1ccccc1)n1ccccc1=O (centres undefined) | active: 86.7%
CC(C)OCCCNC(=O)NC12CC3CC(CC(C3)C1)C2 | inconclusive: 90.9%

SMILES | inhibition
O=C(NCCCN1CCOCC1)C(=O)NCC1CCCO1 (centres undefined) | inactive: -13.9%
COc1ccc(NC(=O)N2CCCCC2)cc1 | active: 80%
O=C(CSc1ccc(-c2ccco2)nn1)Nc1ccccc1 | inconclusive: 75%
COC(=O)c1ccc2nc(C(F)(F)F)[nH]c2c1 | inconclusive: 72.2%
C=CCNC(=S)NNc1nc2c(c(=O)[nH]1)C1(CCCCC1)Cc1ccccc1-2 | inactive: 25.9%
O=C(NCc1ccccc1Cl)C(=O)NCC(c1ccco1)N1CCOCC1 (centres undefined) | active: 77.8%
CC(C)Cn1nc(NC(=O)C2CCCO2)c2cc3ccccc3nc21 (centres undefined) | inconclusive: 75%
CN1C(=O)NC(c2ccccc2)C2=C1CN(Cc1ccco1)C2=O (centres undefined) | inconclusive: 85.7%
Cc1[nH]nc2ncc(C(=O)c3ccccc3O)cc12 | active: 80%
C#CCn1c(-c2cccs2)nc2ccccc21 | active: 92.6%
NC(=O)Cc1nc(-c2ccc([N+](=O)[O-])cc2)cs1 | inconclusive: 80%
CCC(=O)c1cc(F)c(N2CCN(C(=O)c3ccco3)CC2)cc1C | inconclusive: 70%
Nc1cc(N2CCCCC2)c([N+](=O)[O-])cc1Cl | inconclusive: 66.7%
COc1ccc(CNC(=O)/C=C/c2ccco2)cc1OC | active: 71.4%
COC(=O)c1nn(-c2ccccc2)nc1-c1nn(-c2ccccc2)nc1C(=O)OC | inactive: 30.4%
CCC(Oc1ccccc1)C(=O)Nc1nc2ccccc2[nH]1 (centres undefined) | inactive: -10.3%
CC(C)C(c1nnnn1C1CCCCC1)N1CCCc2ccccc21 (centres undefined) | inconclusive: 75%
Cc1nc2ccccc2c2oc(C(=O)NCCN3CCCCC3C)cc12 (centres undefined) | inconclusive: 71.4%
Cc1cc(SCNC(=O)c2ccccc2)nc(C(C)C)n1 | inactive: -21.4%
COc1ccc(C)cc1S(=O)(=O)N(C)CC(=O)NC1CCCCC1 | inactive: 6.25%
O=C(CN1C(=O)NC2(CCCC2)C1=O)Nc1cccc(-c2nnc3n2CCCCC3)c1 | inconclusive: 71.4%
CCOC(=O)CS(=O)(=O)c1ccc2ccccc2c1 | inconclusive: 75%
O=C(CCl)Nc1cc(-c2ccccc2)nn1-c1ccccc1 | active: 86.7%
CC(C)(C)NC(=O)C(c1ccco1)N(C(=O)Cn1nnc(-c2ccc(F)cc2)n1)c1ccccc1 (centres undefined) | inconclusive: 76.7%
COc1ccc2nc(-c3cccc(N)c3)[nH]c2c1 | inconclusive: 79.3%

SMILES | inhibition
COc1ccc2c(c1)C(C)CC(C)(C)N2C(=O)NC1CCCCC1 (centres undefined) | inconclusive: 71.4%
CCCn1c(=S)[nH]c2cc(C(=O)NCC3CCCO3)ccc2c1=O (centres undefined) | inconclusive: 85.7%
CCOC(=O)/C=C1\NC(C)(C)Cc2cc(OC)c(OC)cc21 | inconclusive: 72.2%
COCC(=O)Nc1ccc(Br)cc1 | active: 73.3%
O=C(NC(Cc1ccc2c(c1)OCO2)C(=O)N1CCCC1C(=O)O)c1ccccc1 (centres undefined) | active: 86.7%
COCCNC(=O)Cn1c(=O)n(CCCCCC(=O)NCc2ccc3c(c2)OCO3)c(=O)c2sccc21 | inconclusive: 72.2%
NS(=O)(=O)c1ccc(CCNC(=O)COC(=O)/C=C/c2ccccc2Cl)cc1 | inactive: -9.09%
CCCCn1cnc2c(cnn2-c2ccc(F)cc2)c1=O | inconclusive: 72.7%
COc1ccccc1CN1C(=O)CCC1(C)C(=O)NC1CCCCCC1 (centres undefined) | inactive: -70%
O=C(CCn1c(=S)oc2ccccc21)N1CCCCC1 | inconclusive: 70.4%
CCOc1ccc(Nc2nc(N)nc(CN(C)C3CCCCC3)n2)cc1 | inconclusive: 66.7%
COc1ccc(C(OCC2CO2)c2ccc(OC)cc2)cc1 (centres undefined) | active: 76.9%
COc1ccccc1NS(=O)(=O)c1cc(N)ccc1N1CCCCC1 | inconclusive: 72.1%
O=C(Nc1cccc(Cl)c1)Nc1nccs1 | inconclusive: 78.6%
COc1cccc(N2CCN(Cc3nc4ccccc4c(=O)[nH]3)CC2)c1 | inconclusive: 78.7% [cytotoxic]
Cc1ccc(C)c(SCC(=O)NC(=O)Nc2ccc3c(c2)OCCO3)c1 | active: 80%
Cc1ccc(NC(=O)c2cnn(-c3ccccc3)c2NC(=O)c2ccco2)cc1C | inconclusive: 70.6%
Cc1cc(C(C)(C)C)oc1C(=O)N(CC(=O)NC1CCCC1)c1ccc(F)cc1 | inactive: -19.4%
Cc1nnsc1S(=O)(=O)Cc1ccccc1C(F)(F)F | inactive: 13.3%
O=C(/C=C/c1cccc([N+](=O)[O-])c1)n1cnc2ccccc21 | inactive: -46.7%
O=C(Oc1cccnc1)c1ccccc1[N+](=O)[O-] | inconclusive: 61.5%
O=C(Nc1ccccc1)N1CC=C(c2ccccc2)CC1 | active: 75%
c1cncc(-c2nc3ccccc3[nH]2)c1 | inconclusive: 71%
COC(=O)c1ccccc1NC(=O)N1CCCC1 | inconclusive: 77.8%
COc1ccc(S(=O)(=O)N2CCCC2C(=O)Nc2ccc(C(C)=O)cc2)cc1 (centres undefined) | inconclusive: 71.4%

Molecules above containing bromine (2):
SMILES | inhibition
O=C(N/N=C/c1ccc(Br)s1)c1ccncc1 | inactive: 66.7%
COCC(=O)Nc1ccc(Br)cc1 | active: 73.3%

Quoted from the listing:
inhibition with `CCC(=O)c1cc(F)c(N2CCN(C(=O)c3ccco3)CC2)cc1C` is entered as inconclusive: 70%
inhibition with `Cc1ccc(C)c(SCC(=O)NC(=O)Nc2ccc3c(c2)OCCO3)c1` is entered as active: 80%
inhibition with `Cc1[nH]nc2ncc(C(=O)c3ccccc3O)cc12` is entered as active: 80%
inhibition with `COC(=O)c1ccccc1NC(=O)N1CCCC1` is entered as inconclusive: 77.8%
inhibition with `CC(C)Cn1nc(NC(=O)C2CCCO2)c2cc3ccccc3nc21` (centres undefined) is entered as inconclusive: 75%
inhibition with `O=C(/C=C/c1cccc([N+](=O)[O-])c1)n1cnc2ccccc21` is entered as inactive: -46.7%

The results go on:

SMILES | inhibition
Cn1nnnc1NCc1cccc(Cl)c1Cl | inactive: -11.8%
COc1ccc(OC)c(CNC(=O)Cc2c(C(=O)O)[nH]c3ccc(Cl)cc23)c1 | active: 77.8%
O=C(CNc1ccccc1)N/N=C/c1c[nH]c2ccccc12 | inactive: 6.67%
O=C(CSC1=NCCS1)Nc1ccc(S(=O)(=O)N2CCCCCC2)cc1 | inconclusive: 72.7%
O=C(COC(=O)Cc1ccsc1)Nc1ccccc1 | inconclusive: 72.7%
CC1=CC(C)(C)N(C(=O)CNC2CCCC2)c2cc(C)ccc21 | inactive: -26.7%
COc1ccc(OC)c2[nH]c(=O)c(CCNC(=O)C3CCCCC3)cc12 | inconclusive: 81.8%
Fc1nc(F)c(F)c(NCCCNc2c(F)c(F)nc(F)c2F)c1F | inactive: -21.4%
Cc1ccc(CNC(=O)Cc2ccc(-n3c(=O)[nH]c4ccsc4c3=O)cc2)cc1 | inactive: 20%
Cc1nn(C)cc1CNC(=O)COc1ccc(Cl)cc1Cl | inconclusive: 75%
COc1ccc(/C=N/n2c(N)nc3ccccc32)cc1OC | active: 75%
COc1ccc2c(C)cc(=O)[nH]c2c1 | inconclusive: 70.8%
O=c1cc(CN2CCN(c3ccc(O)cc3)CC2)nc2scc(-c3ccccc3)n12 | inactive: 42.9%
O=C(Nc1ccc(N2CCN(c3ccccc3)CC2)c(F)c1)C1CC1 | inconclusive: 86.7%
CCCN1CN(Cc2ccco2)c2nc3ccccc3n2C1 | inconclusive: 71.4%
O=S(=O)(NCCC(c1ccc(F)cc1)c1ccco1)c1ccccc1 (centres undefined) | inactive: -41.2%
CCc1nc(N(CC)CC)c2oc3ccccc3c2n1 | inconclusive: 77.8%
COCCCNC(=O)c1c(NC(=O)C2COc3ccccc3O2)sc2c1CCCC2 (centres undefined) | active: 87.1%
CCOc1ccc(NC(=O)c2ccc3snnc3c2)cc1 | inconclusive: 77.8%
Cc1sc2nc(SCC(=O)NCc3cccs3)[nH]c(=O)c2c1C | active: 90.9%
Cc1nc2cc(Cl)ccc2n1CCO | inconclusive: 72.7%
CCOc1ccc(NC(=S)c2ccncc2)cc1 | inconclusive: 63.6%
CC(C)Sc1nnc2n(CCc3ccccc3)c(=O)c3c4c(sc3n12)COC(C)(C)C4 | inconclusive: 80%
CC(=O)c1cnc(Nc2cccc(C)c2)s1 | inconclusive: 71.4%
